This is one part of the list.
Legend:
Assay in all cases: log2 fold change, soluble protein after heating vs DMSO (PISA); higher = thermal stabilisation; K562 lysate, 10 uM; active = over 0.2 and 3.5 SD of the protein, either way, in both replicates (recomputed)
[1] = compound: CCCS(=O)(=O)Nc1ccc(F)c(C(=O)c2c[nH]c3ncc(-c4ccc(Cl)cc4)cc23)c1F [vemurafenib]
In short: (§1)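 K562 pellets were dounce-homogenised in PBS pH 7.4 containing 1 mM MgCl2, and the crude extract, at 1 mg/mL protein, was exposed to 10 μM compound for 30 min. Aliquots were heated for 3 min across 48°C-58°C, pooled, brought to 0.5% NP-40 at 4°C and spun at 21,000xg for 90 min, with the supernatant taken as soluble protein. TMTpro 16plex LC-MS/MS with equalised channel sums quantified that protein. Values are log-two fold changes in thermal stability relative to solvent controls, taken from duplicates.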

Sequences of proteins named here, by UniProt entry; tags and fusion partners are left off. A change or cut given only in a name is not applied to a line headed by its entry.
UniProt Q8TA86: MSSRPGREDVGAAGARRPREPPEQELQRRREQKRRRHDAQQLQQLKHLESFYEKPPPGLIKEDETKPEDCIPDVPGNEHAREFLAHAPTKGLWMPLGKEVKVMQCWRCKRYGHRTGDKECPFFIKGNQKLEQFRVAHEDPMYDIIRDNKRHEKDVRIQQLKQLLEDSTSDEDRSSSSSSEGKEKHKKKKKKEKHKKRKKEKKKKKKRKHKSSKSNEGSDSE
UniProt Q9HAU8: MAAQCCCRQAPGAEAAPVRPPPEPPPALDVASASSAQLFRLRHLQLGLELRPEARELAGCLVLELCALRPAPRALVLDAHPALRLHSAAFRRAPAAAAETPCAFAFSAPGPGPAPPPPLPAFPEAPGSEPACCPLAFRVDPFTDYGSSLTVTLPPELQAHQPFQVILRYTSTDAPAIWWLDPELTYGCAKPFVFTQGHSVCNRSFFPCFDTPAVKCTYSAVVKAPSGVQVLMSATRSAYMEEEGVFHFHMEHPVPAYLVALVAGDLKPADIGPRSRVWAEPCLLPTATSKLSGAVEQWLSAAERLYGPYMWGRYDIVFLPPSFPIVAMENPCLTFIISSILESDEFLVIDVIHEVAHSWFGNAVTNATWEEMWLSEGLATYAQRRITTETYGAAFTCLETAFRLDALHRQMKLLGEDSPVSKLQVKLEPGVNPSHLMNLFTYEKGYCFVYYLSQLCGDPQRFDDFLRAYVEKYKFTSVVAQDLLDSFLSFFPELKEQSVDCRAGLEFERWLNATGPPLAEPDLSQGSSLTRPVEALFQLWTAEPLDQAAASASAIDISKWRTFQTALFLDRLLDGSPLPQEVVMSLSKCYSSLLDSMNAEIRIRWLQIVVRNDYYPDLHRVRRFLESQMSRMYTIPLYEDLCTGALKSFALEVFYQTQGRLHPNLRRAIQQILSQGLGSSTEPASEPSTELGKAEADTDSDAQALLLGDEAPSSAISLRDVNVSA
UniProt Q5TA31: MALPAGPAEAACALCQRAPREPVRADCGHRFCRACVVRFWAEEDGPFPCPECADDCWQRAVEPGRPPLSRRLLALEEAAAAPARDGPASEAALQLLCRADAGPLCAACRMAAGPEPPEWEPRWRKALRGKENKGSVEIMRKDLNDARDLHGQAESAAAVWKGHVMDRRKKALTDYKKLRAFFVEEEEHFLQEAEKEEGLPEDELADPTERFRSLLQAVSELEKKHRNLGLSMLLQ
UniProt Q9UBS8: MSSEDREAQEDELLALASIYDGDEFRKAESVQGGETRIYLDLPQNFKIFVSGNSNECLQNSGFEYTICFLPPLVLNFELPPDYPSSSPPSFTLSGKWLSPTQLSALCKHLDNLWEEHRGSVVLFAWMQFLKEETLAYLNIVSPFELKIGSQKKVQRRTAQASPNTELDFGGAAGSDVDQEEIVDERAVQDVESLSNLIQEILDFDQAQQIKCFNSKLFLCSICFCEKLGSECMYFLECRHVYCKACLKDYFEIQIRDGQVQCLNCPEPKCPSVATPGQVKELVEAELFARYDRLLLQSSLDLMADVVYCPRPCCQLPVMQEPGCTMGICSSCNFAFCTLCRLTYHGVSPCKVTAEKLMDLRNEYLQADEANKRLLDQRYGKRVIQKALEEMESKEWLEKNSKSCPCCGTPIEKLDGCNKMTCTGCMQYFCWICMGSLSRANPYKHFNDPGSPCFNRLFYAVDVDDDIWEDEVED
UniProt Q7L0Q8: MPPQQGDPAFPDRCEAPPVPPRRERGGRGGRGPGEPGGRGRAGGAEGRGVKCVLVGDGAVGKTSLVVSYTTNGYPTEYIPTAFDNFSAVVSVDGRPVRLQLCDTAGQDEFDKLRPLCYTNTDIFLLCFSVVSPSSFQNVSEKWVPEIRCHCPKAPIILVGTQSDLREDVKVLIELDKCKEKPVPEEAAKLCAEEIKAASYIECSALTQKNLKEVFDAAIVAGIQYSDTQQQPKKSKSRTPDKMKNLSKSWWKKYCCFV
UniProt Q15287: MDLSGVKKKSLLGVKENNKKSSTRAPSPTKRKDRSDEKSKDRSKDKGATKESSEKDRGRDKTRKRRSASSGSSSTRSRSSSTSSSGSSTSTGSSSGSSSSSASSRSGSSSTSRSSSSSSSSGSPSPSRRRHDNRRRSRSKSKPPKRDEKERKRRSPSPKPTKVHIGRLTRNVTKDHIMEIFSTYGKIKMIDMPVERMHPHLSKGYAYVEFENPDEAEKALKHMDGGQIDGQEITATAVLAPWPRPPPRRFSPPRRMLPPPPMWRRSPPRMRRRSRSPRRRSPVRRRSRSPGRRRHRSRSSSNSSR

[2] = compound: CCCS(=O)(=O)Nc1ccc(F)c(C(=O)c2c[nH]c3ncc(Cl)cc23)c1F
In short: as §1

[3] = compound: CC[C@@H]1C(=O)N(C)c2cnc(Nc3ccc(C(=O)N[C@H]4CC[C@H](N5CCN(CC6CC6)CC5)CC4)cc3OC)nc2N1C(C)C [volasertib]
In short: as §1

[4] = compound: CCn1cc(-c2ccnc3[nH]c(-c4cccc(CN(C)C)c4)cc23)c(-c2ccc(NC(=O)N(C)C)cc2)n1
In short: as §1

[5] = compound: CN1CCC(CNc2ccc3ncc(-c4cccc(OC(F)(F)F)c4)n3n2)CC1
In short: as §1

[6] = compound: CN1CCN(CCOc2cc(OC3CCOCC3)c3c(Nc4c(Cl)ccc5c4OCO5)ncnc3c2)CC1 [saracatinib]
In short: as §1

[7] = compound: CN1CCN(c2nc(C3=C(c4c[nH]c5ccccc45)C(=O)NC3=O)c3ccccc3n2)CC1 [sotrastaurin]
In short: as §1

[8] = compound: CN1CC[C@H](c2c(O)cc(O)c3c(=O)cc(-c4ccccc4Cl)oc23)[C@H](O)C1 [alvocidib]
In short: as §1

[9] = compound: CNC(=O)C1=CC=CC=C1NC2=NC(=NC=C2Cl)NC3=C(C=C(C=C3)N4CCOCC4)OC
In short: as §1

[10] = compound: CNC(=O)c1ccc(Nc2ncc(C(F)(F)F)c(NCc3nccnc3N(C)S(C)(=O)=O)n2)cc1 [defactinib]
In short: as §1

[11] = compound: CNc1nc(-c2ccc3c(N)n[nH]c3c2)cc(N2C[C@@H](C(=O)NC3CCCCC3)CC[C@H]2C)n1
In short: as §1

[12] = compound: COc1cc2nc(-c3cc(F)ccc3O)nc(N[C@@H]3CNC[C@H]3C(C)(C)O)c2cc1OC
In short: as §1

[13] = compound: CCN(CCCOc1ccc2c(Nc3cc(CC(=O)Nc4cccc(F)c4)[nH]n3)ncnc2c1)CCOP(=O)(O)O [barasertib]
In short: as §1

[14] = compound: CC[C@@H]1C(=O)N(C)c2cnc(Nc3ccc(C(=O)NC4CCN(C)CC4)cc3OC)nc2N1C1CCCC1
In short: as §1

[15] = compound: CCn1c(C(=O)N(C2CC2)C2CC2)cc2c3c(ncn3C)c(Nc3cc(C)n(C)n3)nc21
In short: as §1

[16] = compound: CN1CCc2c(c3ccccc3n2Cc2ccc(C(=O)NO)cc2)C1 [Tubastatin A]
In short: as §1

[17] = compound: COC(=O)N[C@@H](C)CNc1nccc(-c2cn(C(C)C)nc2-c2cc(Cl)cc(NS(C)(=O)=O)c2F)n1 [encorafenib]
In short: as §1

[18] = compound: COC(=O)[C@H](CCSC)NC(=O)C1=C(C=C(C=C1)NC[C@H](CS)N)C2=CC=CC=C2
In short: as §1

[19] = compound: COc1cc(Nc2ncc3c(n2)-c2ccc(Cl)cc2C(c2c(F)cccc2OC)=NC3)ccc1C(=O)O [alisertib]
In short: as §1

[20] = compound: COc1cc2ncnc(Nc3ccc(F)c(Cl)c3)c2cc1OCCCN1CCOCC1 [gefitinib]
In short: as §1

RP9 (UniProt Q8TA86)
log2 fold change [1]: inactive: -0.043 | log2 fold change [2]: inactive: 0.033 | log2 fold change [3]: inactive: -0.022 | log2 fold change [4]: inactive: 0.251 | log2 fold change [5]: inactive: 0.027 | log2 fold change [6]: inactive: -0.103 | log2 fold change [7]: inactive: 0.049 | log2 fold change [8]: inactive: 0.191 | log2 fold change [9]: inactive: -0.027 | log2 fold change [10]: inactive: -0.061 | log2 fold change [11]: inactive: -0.014 | log2 fold change [12]: inactive: -0.032

RPL35 (UniProt P42766)
log2 fold change [1]: inactive: -0.005 | log2 fold change [2]: inactive: -0.144 | log2 fold change [13]: inactive: -0.029 | log2 fold change [14]: inactive: 0.041 | log2 fold change [3]: inactive: 0.015 | log2 fold change [15]: inactive: -0.041 | log2 fold change [4]: inactive: -0.099 | log2 fold change [5]: inactive: -0.003 | log2 fold change [6]: inactive: -0.047 | log2 fold change [7]: inactive: 0.01 | log2 fold change [8]: inactive: -0.014 | log2 fold change [16]: inactive: 0.065 | log2 fold change [9]: inactive: -0.033 | log2 fold change [10]: inactive: -0.039 | log2 fold change [11]: inactive: 0.054 | log2 fold change [17]: inactive: -0.05 | log2 fold change [18]: inactive: -0.017 | log2 fold change [19]: inactive: 0.059 | log2 fold change [12]: inactive: -0.054 | log2 fold change [20]: inactive: -0.077

RPL18A (UniProt Q02543)
log2 fold change [1]: inactive: 0 | log2 fold change [2]: inactive: 0.002 | log2 fold change [13]: inactive: -0.017 | log2 fold change [14]: inactive: 0.009 | log2 fold change [3]: inactive: -0.013 | log2 fold change [15]: inactive: -0.017 | log2 fold change [4]: inactive: 0.22 | log2 fold change [5]: inactive: -0.016 | log2 fold change [6]: inactive: 0.019 | log2 fold change [7]: inactive: -0.015 | log2 fold change [8]: inactive: 0.011 | log2 fold change [16]: inactive: -0.004 | log2 fold change [9]: inactive: -0.006 | log2 fold change [10]: inactive: 0.026 | log2 fold change [11]: inactive: -0.021 | log2 fold change [17]: inactive: 0.039 | log2 fold change [18]: inactive: 0.002 | log2 fold change [19]: inactive: 0.004 | log2 fold change [12]: inactive: -0.001 | log2 fold change [20]: inactive: -0.031

RNPEPL1 (UniProt Q9HAU8)
log2 fold change [1]: inactive: 0.086 | log2 fold change [2]: inactive: -0.218 | log2 fold change [3]: inactive: 0.207 | log2 fold change [15]: inactive: -0.11 | log2 fold change [4]: inactive: 0.052 | log2 fold change [5]: inactive: -0.011 | log2 fold change [6]: inactive: -0.038 | log2 fold change [7]: inactive: 0.06 | log2 fold change [8]: inactive: 0.073 | log2 fold change [16]: inactive: 0.007 | log2 fold change [9]: inactive: -0.015 | log2 fold change [10]: inactive: -0.161 | log2 fold change [11]: inactive: 0.056 | log2 fold change [19]: inactive: -0.111 | log2 fold change [12]: inactive: 0.252 | log2 fold change [20]: inactive: 0.095

RNF187 (UniProt Q5TA31)
log2 fold change [1]: inactive: 0.07 | log2 fold change [13]: inactive: 0.003 | log2 fold change [14]: inactive: 0.034 | log2 fold change [15]: inactive: 0.058 | log2 fold change [4]: inactive: -0.051 | log2 fold change [5]: inactive: 0.035 | log2 fold change [6]: inactive: 0.075 | log2 fold change [7]: inactive: 0.01 | log2 fold change [8]: inactive: -0.028 | log2 fold change [16]: inactive: 0.061 | log2 fold change [9]: inactive: 0.071 | log2 fold change [10]: inactive: -0.073 | log2 fold change [11]: inactive: 0.022 | log2 fold change [17]: inactive: 0.131 | log2 fold change [18]: inactive: -0.057 | log2 fold change [19]: inactive: -0.013 | log2 fold change [20]: inactive: 0.009

RPL14 (UniProt P50914)
log2 fold change [1]: inactive: -0.034 | log2 fold change [2]: inactive: -0.002 | log2 fold change [13]: inactive: -0.017 | log2 fold change [14]: inactive: 0.013 | log2 fold change [3]: inactive: -0.031 | log2 fold change [15]: inactive: 0.021 | log2 fold change [4]: inactive: 0.032 | log2 fold change [5]: inactive: 0.02 | log2 fold change [6]: inactive: -0.022 | log2 fold change [7]: inactive: -0.12 | log2 fold change [8]: inactive: 0.011 | log2 fold change [16]: inactive: -0.045 | log2 fold change [9]: inactive: 0.017 | log2 fold change [10]: inactive: -0.003 | log2 fold change [11]: inactive: -0.006 | log2 fold change [17]: inactive: -0.001 | log2 fold change [18]: inactive: -0.003 | log2 fold change [19]: inactive: -0.014 | log2 fold change [12]: inactive: -0.019 | log2 fold change [20]: inactive: -0.017

RNF14 (UniProt Q9UBS8)
log2 fold change [1]: inactive: -0.006 | log2 fold change [2]: inactive: 0.001 | log2 fold change [13]: inactive: -0.008 | log2 fold change [14]: inactive: -0.031 | log2 fold change [3]: inactive: -0.001 | log2 fold change [15]: inactive: -0.07 | log2 fold change [4]: inactive: 0.026 | log2 fold change [5]: inactive: -0.024 | log2 fold change [6]: inactive: -0.011 | log2 fold change [7]: inactive: 0.022 | log2 fold change [8]: inactive: -0.007 | log2 fold change [16]: inactive: 0.014 | log2 fold change [9]: inactive: 0.022 | log2 fold change [10]: inactive: -0.006 | log2 fold change [11]: inactive: -0.01 | log2 fold change [17]: inactive: -0.006 | log2 fold change [18]: inactive: 0.03 | log2 fold change [19]: inactive: -0.043 | log2 fold change [12]: inactive: 0.03 | log2 fold change [20]: inactive: 0.017

RPL24 (UniProt P83731)
log2 fold change [1]: inactive: -0.014 | log2 fold change [2]: inactive: -0.021 | log2 fold change [13]: inactive: -0.047 | log2 fold change [14]: inactive: 0.04 | log2 fold change [3]: inactive: 0 | log2 fold change [15]: inactive: 0.007 | log2 fold change [4]: inactive: 0.012 | log2 fold change [5]: inactive: -0.025 | log2 fold change [6]: inactive: 0.008 | log2 fold change [7]: inactive: 0.017 | log2 fold change [8]: inactive: 0.01 | log2 fold change [16]: inactive: 0.031 | log2 fold change [9]: inactive: -0.015 | log2 fold change [10]: inactive: -0.001 | log2 fold change [11]: inactive: 0.021 | log2 fold change [17]: inactive: -0.006 | log2 fold change [18]: inactive: -0.009 | log2 fold change [19]: inactive: -0.003 | log2 fold change [12]: inactive: -0.001 | log2 fold change [20]: inactive: -0.015

RHOU (UniProt Q7L0Q8)
log2 fold change [1]: inactive: -0.04 | log2 fold change [2]: inactive: -0.059 | log2 fold change [14]: inactive: -0.122 | log2 fold change [3]: inactive: 0.008 | log2 fold change [15]: inactive: -0.006 | log2 fold change [4]: inactive: 0.173 | log2 fold change [5]: inactive: 0.015 | log2 fold change [6]: inactive: -0.027 | log2 fold change [7]: inactive: 0.036 | log2 fold change [8]: inactive: 0.007 | log2 fold change [16]: inactive: 0.005 | log2 fold change [9]: inactive: -0.036 | log2 fold change [10]: inactive: -0.073 | log2 fold change [11]: inactive: -0.17 | log2 fold change [17]: inactive: -0.088 | log2 fold change [18]: inactive: 0.164 | log2 fold change [19]: inactive: -0.014 | log2 fold change [12]: inactive: 0.024 | log2 fold change [20]: inactive: -0.017

RPL28 (UniProt P46779)
log2 fold change [1]: inactive: 0 | log2 fold change [2]: inactive: -0.016 | log2 fold change [13]: inactive: -0.049 | log2 fold change [14]: inactive: -0.001 | log2 fold change [3]: inactive: 0.006 | log2 fold change [15]: inactive: -0.017 | log2 fold change [4]: active: 0.278 | log2 fold change [5]: inactive: -0.066 | log2 fold change [6]: inactive: -0.011 | log2 fold change [7]: inactive: -0.038 | log2 fold change [8]: inactive: 0.03 | log2 fold change [16]: inactive: 0.006 | log2 fold change [9]: inactive: -0.009 | log2 fold change [10]: inactive: -0.018 | log2 fold change [11]: inactive: 0.036 | log2 fold change [17]: inactive: 0.012 | log2 fold change [18]: inactive: -0.014 | log2 fold change [19]: inactive: 0.011 | log2 fold change [12]: inactive: -0.005 | log2 fold change [20]: inactive: -0.058

RNPS1 (UniProt Q15287)
log2 fold change [1]: inactive: -0.03 | log2 fold change [2]: inactive: 0.001 | log2 fold change [13]: inactive: -0.008 | log2 fold change [14]: inactive: -0.175 | log2 fold change [3]: inactive: 0.043 | log2 fold change [15]: inactive: -0.022 | log2 fold change [4]: inactive: 0.02 | log2 fold change [5]: inactive: 0.077 | log2 fold change [6]: inactive: -0.04 | log2 fold change [7]: inactive: -0.003 | log2 fold change [8]: inactive: -0.043 | log2 fold change [16]: inactive: 0.102 | log2 fold change [9]: inactive: 0.02 | log2 fold change [10]: inactive: -0.009 | log2 fold change [11]: inactive: 0.029 | log2 fold change [17]: inactive: 0.069 | log2 fold change [18]: inactive: 0.01 | log2 fold change [19]: inactive: 0.02 | log2 fold change [12]: inactive: 0.01 | log2 fold change [20]: inactive: 0.006

— the supplement of paper PMC10849652
